# Data source: PubChem BioAssay AID504744 (Drosophila RNAi Screening Center, 2011)
# Purpose: 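Identify dsRNAs that increase or decrease phospho-dAkt after insulin treatment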 (primary screen)
# Cell system: Drosophila Kc167 cells
# Knock-down reagent: long dsRNA against Drosophila genes, 250 ng dsRNA per well of a 384-well plate
# Duration: 3 days of knock-down, then overnight serum-free starvation before stimulation
# Conditions: bovine insulin at 387 nM for 10 minutes after 12 h without serum
# Measurement: 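In-cell antibody fluorescence for phospho-dAkt in each well over DNA-dye signal, with log2 residuals expressed as z-scores adjusted for cell count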
# Call rule: 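Under insulin, a gene counts as a hit if the average z-score of two replicates lies above 2.5 or below -2.5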
# In all, the deposit lists about 23,000 reagents; this is an unselected part of those with a known target gene and a result. Over the whole deposit, 98 (0.43%) are marked active. 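Only hit calls are given; the phospho-dAkt signals, z-scores and hit direction were not deposited.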 Names joined by + are all predicted targets of the reagent.
target,DRSC id,outcome
gig,DRSC11351,active
CG15916,DRSC19740,inactive
CG5023,DRSC15697,inactive
CG32642,DRSC18959,inactive
CG10492,DRSC02064,inactive
Epg5,DRSC14778,inactive
tHMG1,DRSC16181,inactive
CG5707,DRSC08573,inactive
chinmo,DRSC00292,inactive
chinmo,DRSC00485,inactive
chinmo,DRSC00509,inactive
chinmo,DRSC22413,inactive
SdhD,DRSC14215,inactive
mRpS23,DRSC01348,inactive
CG42703,DRSC03973,inactive
RpS29 + snoRNA:Psi18S-1275,DRSC16433,inactive
Pa1,DRSC19422,inactive
Mcm3,DRSC18679,inactive
Chchd2,DRSC19931,inactive
Dlip1,DRSC18460,inactive
SkpA,DRSC18833,inactive
CG3386,DRSC08566,inactive
CG11279,DRSC09837,inactive
CG13615,DRSC14618,inactive
CG13287,DRSC09961,inactive
CG15814,DRSC19730,inactive
nrv3,DRSC03097,inactive
CG34198,DRSC05803,inactive
Scgalpha,DRSC03076,inactive
CG31909,DRSC22180,inactive
Cpr78E,DRSC11807,inactive
CG9427,DRSC16490,inactive
Arpc1,DRSC03438,inactive
Atu,DRSC12123,inactive
AstA-R1,DRSC17278,inactive
AstA-R1,DRSC17727,inactive
Dbx,DRSC08270,inactive
Dbx,DRSC08271,inactive
Dbx,DRSC08394,inactive
CG7341,DRSC10818,inactive
CG5445,DRSC19943,inactive
ttm50,DRSC18587,inactive
SMC3,DRSC20227,inactive
CG8617,DRSC07223,inactive
ix,DRSC06325,inactive
dsx,DRSC12649,inactive
dsx,DRSC16934,inactive
dsx,DRSC21495,inactive
CG14007,DRSC02339,inactive
CG7166,DRSC11809,inactive
CG15343,DRSC18028,inactive
atms,DRSC12310,inactive
repo,DRSC16369,inactive
CG9855,DRSC12344,inactive
Spindly,DRSC00430,inactive
FucTC,DRSC20966,inactive
IP3K2,DRSC19500,inactive
IP3K2,DRSC19747,inactive
IP3K2,DRSC22614,inactive
Sp7,DRSC15461,inactive
Kmn1,DRSC19666,inactive
CG33342,DRSC13662,inactive
mEFTs,DRSC02953,inactive
CG13699,DRSC10048,inactive
Smyd4-2,DRSC10126,inactive
CG31819,DRSC01532,inactive
muc,DRSC02832,inactive
muc,DRSC21940,inactive
CG32284,DRSC08025,inactive
Tsp29Fa,DRSC03232,inactive
Sur-8,DRSC15794,inactive
st,DRSC11399,inactive
CG8160,DRSC07086,inactive
CG8160,DRSC21434,inactive
ND-39,DRSC11791,inactive
CG42710,DRSC01034,inactive
ppk27,DRSC08168,inactive
ppk27,DRSC22211,inactive
Sar1,DRSC17049,inactive
Sar1,DRSC22115,inactive
CG13717 (retired record),DRSC08116,inactive
CG13717 (retired record),DRSC08324,inactive
CG13717 (retired record),DRSC08326,inactive
CG13717 (retired record),DRSC21337,inactive
Ipk1,DRSC04235,inactive
Ipk1,DRSC04236,inactive
Ipk1,DRSC04237,inactive
CG8034,DRSC20076,inactive
CG17944,DRSC12572,inactive
Sp1,DRSC17622,inactive
Sp1,DRSC18717,inactive
Eno,DRSC00750,inactive
nec,DRSC06769,inactive
CG15043,DRSC19619,inactive
CG14823,DRSC10194,inactive
CG30491,DRSC21472,inactive
RpS7,DRSC15394,inactive
Dh31-R,DRSC06647,inactive
Dh31-R,DRSC06669,inactive
CG31787,DRSC01632,inactive
awd,DRSC16906,inactive
CG4676,DRSC06879,inactive
Raf,DRSC18821,inactive
CG9962,DRSC00739,inactive
CG7044,DRSC16180,inactive
Bet1,DRSC10088,inactive
Past1,DRSC16784,inactive
shep,DRSC08748,inactive
shep,DRSC09765,inactive
shep,DRSC09771,inactive
Ent2,DRSC02124,inactive
ND2 (retired record),DRSC21274,inactive
CG4596,DRSC15608,inactive
CG15236,DRSC04970,inactive
CG15236,DRSC21396,inactive
spict,DRSC02157,inactive
CG43316,DRSC06296,inactive
CG43316,DRSC06297,inactive
CG42264,DRSC18074,inactive
CG42264,DRSC18075,inactive
eIF4E5,DRSC10975,inactive
CG30148,DRSC06391,inactive
CG14556,DRSC14899,inactive
Ykt6,DRSC17970,inactive
SPH93,DRSC02978,inactive
CR11023,DRSC00302,inactive
CR30068 (retired record),DRSC05477,inactive
bif,DRSC18901,inactive
bif,DRSC20313,inactive
Prosalpha7,DRSC07516,inactive
CG1440,DRSC17915,inactive
Sems,DRSC11626,inactive
CG32720,DRSC17529,inactive
Cpr65Ay,DRSC08796,inactive
chn,DRSC06086,inactive
CG2006 + Spase12,DRSC14316,inactive
seq,DRSC06863,inactive
Paip2,DRSC14504,inactive
Ir94f,DRSC13621,inactive
BaraB,DRSC06420,inactive
BomS2,DRSC21488,inactive
CG12268,DRSC14491,inactive
CG16749,DRSC15146,inactive
CG32240,DRSC08093,inactive
tgo,DRSC17077,inactive
CG10663,DRSC09770,inactive
PGRP-SB2,DRSC11092,inactive
Chi,DRSC04602,inactive
CG2616,DRSC15440,inactive
Ten-m,DRSC11664,inactive
Ten-m,DRSC11882,inactive
CG5567,DRSC10517,inactive
Picot,DRSC07508,inactive
Hel25E,DRSC03342,inactive
CG17666,DRSC10276,inactive
TwdlL,DRSC16042,inactive
CG8389,DRSC07158,inactive
CG8389,DRSC22855,inactive
CG5568,DRSC10518,inactive
CG5568,DRSC22816,inactive
CG5079,DRSC15713,inactive
Hsc70-4,DRSC16711,active
hng2,DRSC16412,inactive
RpS3,DRSC16838,inactive
CG34115,DRSC03840,inactive
Peritrophin-A,DRSC20570,inactive
CG34328,DRSC19256,inactive
CG4953,DRSC02792,inactive
eIF1A,DRSC16937,active
inaE,DRSC19376,inactive
inaE,DRSC19377,inactive
inaE,DRSC19379,inactive
inaE,DRSC19726,inactive
S-Lap4,DRSC10957,inactive
CG7069,DRSC16188,inactive
Adk3,DRSC05917,inactive
CG15333,DRSC18016,inactive
CG15333,DRSC18153,inactive
Dlip3,DRSC07401,inactive
CG32772,DRSC18052,inactive
CG32772,DRSC18406,inactive
CG32772,DRSC22349,inactive
ninaG,DRSC16102,inactive
X11L,DRSC19958,inactive
X11L,DRSC19959,inactive
unpg,DRSC07713,inactive
CG16972,DRSC02550,inactive
slmb,DRSC17056,inactive
if,DRSC20341,inactive
CG42329,DRSC00373,inactive
CG42329,DRSC00682,inactive
CG9344,DRSC04541,inactive
Wdr24,DRSC14151,inactive
Eip74EF,DRSC10613,inactive
Eip74EF,DRSC11160,inactive
CG18404,DRSC15323,inactive
Grasp65,DRSC10917,inactive
Mon1,DRSC00336,inactive
brn,DRSC18746,inactive
nst,DRSC09755,inactive

Reagents listed so far with an active call, once more:
target,DRSC id,outcome
gig,DRSC11351,active
Hsc70-4,DRSC16711,active
eIF1A,DRSC16937,active
